Among the data in publication PMC3041725 are binding values, retold here.

Chains of the proteins cited; added tags and fusions are not shown.
UniProt P29555: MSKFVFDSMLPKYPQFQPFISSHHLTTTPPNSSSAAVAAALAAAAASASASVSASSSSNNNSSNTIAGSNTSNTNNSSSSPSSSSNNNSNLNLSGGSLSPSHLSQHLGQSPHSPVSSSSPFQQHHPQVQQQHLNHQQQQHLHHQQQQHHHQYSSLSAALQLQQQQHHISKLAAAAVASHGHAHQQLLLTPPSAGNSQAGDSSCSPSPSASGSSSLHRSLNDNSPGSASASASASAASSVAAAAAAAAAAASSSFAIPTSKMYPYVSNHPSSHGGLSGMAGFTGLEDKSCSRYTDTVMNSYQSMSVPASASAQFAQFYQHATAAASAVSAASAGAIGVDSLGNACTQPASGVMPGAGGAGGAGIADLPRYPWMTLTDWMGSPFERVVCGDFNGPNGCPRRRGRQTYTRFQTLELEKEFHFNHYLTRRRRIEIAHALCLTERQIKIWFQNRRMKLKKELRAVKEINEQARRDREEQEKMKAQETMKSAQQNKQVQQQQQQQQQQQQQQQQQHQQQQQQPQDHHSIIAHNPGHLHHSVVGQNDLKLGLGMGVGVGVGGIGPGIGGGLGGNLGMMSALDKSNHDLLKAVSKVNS

No constants are given. Whether binding was seen depends on the method and setting. In cells and extracts the contact can be indirect. Some results given as binding are weak or reduced against the parent protein; the word gives no strength. Tags and fused reporters may be left off the sequences shown.

Assay [1] deals with VC-AbdA fusion protein, expressed in Drosophila embryos (Drosophila melanogaster) (UniProt P29555). Briefly: split reporter; split Venus (VN 1-173, VC 155-238) BiFC in living Drosophila embryos; fusion proteins expressed by UAS/Gal4 (abdA-Gal4, en-Gal4, btl-Gal4 and others); embryos kept at 4°C for 28 h before confocal imaging.
Assay [2] shares this target. Briefly: split reporter; competition against split Venus BiFC in living Drosophila embryos: an unfused ('cold') protein co-expressed with the two fusion proteins.
Assay [3] concerns the target VN-AbdA fusion protein, expressed in Drosophila embryos (Drosophila melanogaster) (UniProt P29555). The description is as above.

B1: Tsh-VN fusion protein (Teashirt), expressed in Drosophila embryos (protein, UniProt P22265 1-954)
chain: MLHEALMLEIYRQALNAGALPTARPRSTESANSSERCPSHDSNSSEHGGGAGSGGVGHRLDAAALSTGVMPGEGPTTLHSSFPAVPQSLPSQPPSMEAYLHMVAAAAQQYGFPLAAAAAAGAGPRLPLPLANEAAAPFKLPPQASPTASSNNSEALDFRTNLYGRAESAEPPASEGEEEEFDDGANNPLDLSVGTRKRGHESEPQLGHIQVKKMFKSDSPPANSVASPSASQLLPGVNPYLAAVAAANIFRAGQFPDWNSKNDLVVDPLEKMSDIVKGGASGMGTKEKMHSSKATTPQAASQPPKSPVQPTPNQNSESGGGSGGGAAGSGAVTKARHNIWQSHWQNKGVASSVFRCVWCKQSFPTLEALTTHMKDSKHCGVNVPPFGNLPSNNPQPQHHHPTPPPPPQNHNLRKHSSGSASNHSPSANVKNAFQYRGDPPTPLPRKLVRGQNVWLGKGVEQAMQILKCMRCGESFRSLGEMTKHMQETQHYTNILSQEQSISIKSGNANANSDAKESHNSLSSEESRTLSAVLTCKVCDKAFNSLGDLSNHMAKNNHYAEPLLQSAGARKRPAPKKREKSLPVRKLLEMKGGSGTTQEDHSNEKTSVQGKPGLGPGGGDKNDAALFAERMRQYITGVKAPEEIAKVAAAQLLAKNKSPELVEQKNGGSAKAAGASSVLSAIEQMFTTSFDTPPRHASLPASSPSNSSTKNTSPVASSILKRLGIDETVDYNKPLIDTNDPYYQHYRYTSSERSGSECSAEARPRLDAPTPEKQQQGGGHDEESSKPAIKQEREAESKPVKMEIKSEFVDEPNEAEETSKMEAAVVNGSATNNNNNIVERSSPKTPSSAASPQTRLLPPRSPAESQRSVTPKSPASSHKSYDGSSEGTKKFPSDSLNALSSMFDSLGSSGAGANSRAKLAAAAAAGGSESPENLTAGGNSLAALRQFCVKKEKTA
Consider B1, for which the binding entry in assay [1] is “binds”.

B2: Teashirt (Tsh), wild-type, not fused to a Venus fragment, expressed in Drosophila embryos (protein, UniProt P22265 1-954)
chain: B1 chain
Regarding B2, the binding result in assay [2] and in assay [3] was “binds” each time.

B3: VN-Bin fusion protein (Biniou), expressed in Drosophila embryos (protein, UniProt Q9VS05 1-676)
chain: MIKSEEASDRSVMTMDQLGGYYHDPRAHPPFSHPHAHSHPHQHTHTGHPYRAGNLLTGGNYQAMGGGESPTELIDEKPNIGYMELKHYMDATPTATPVSAAQHYSLSALHSMGTPPASSSPIPPYGVLMTAHSAGSASPQSNSKTPTDLPQDLQYASSSTSTAKVQPLQVQLQPLNHQYASTIKYCSNNTILSANDYQLLTSQEQAGQQQPQQLPAQQLQHSPGGGYMSRISTSPSQVISNAHGMPVLNYSSSSSSPAKSLNGSESSPPSQNHLENKVSGSAVVGTGGSSQQDAPSTPDTTKKSGTRRPEKPALSYINMIGHAIKESPTGKLTLSEIYAYLQKSYEFFRGPYVGWKNSVRHNLSLNECFKKLPKGMGVGKPGKGNYWTIDENSAHLFEDEGSLRRRPRGYRSKIKVKPYAGHANGYYASGYGDAGMDNGNYYASPAFASYDYSAAGATGVSPAGGQGFADPWNAHAAHSGSSSVGVGMGVGPLPQYTNISCLAAGGNVNGSATTPPLAHSALGMAPSASSSSSPLGAAATLQSDYAPTASLVAAGYSYATSAGSLDNGLRSISLQQLPGLSSIQHAQAQAQAQAHHHHHQHHASHPSHSHQGHGSMHQNHGTSSTTPPPSQSGGSHGIDHSPIDRKPAYLPPISPPPMMVALNGGGGYYEGLKYAN
Take B3: the binding result in assay [1] is given as “binds”.
